PubChem BioAssay AID1508597 – Cure First | 2020
Aim: 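Genes whose silencing sensitises or protects ovarian cancer cells against rucaparib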 (primary screen). Cell system: human ovarian carcinoma lines grown from tumours: OCI-P5x (papillary serous) and OCI-C5x (clear cell). Knock-down reagent: siRNA pool against human genes, 1.25 pmol siRNA per well. Duration: 72 h or 96 h, depending on the cell culture. Treatment: rucaparib 20 µM (about IC30) or vehicle, present until read-out. Rucaparib or vehicle: Rucaparib. Cell line: OCI-P5x (serous). Measurement: 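Luminescent ATP-based viability assay read 72 or 96 h after transfection, depending on culture, given as normalised percent viability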. Scale: viability, normalised: higher = more viable cells remaining. Hit rule: 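Active when normalised viability falls below 80 percent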. Meaning of the calls: active = viability under 80%; inactive = viability 80% or more.
This is an unselected part of the about 2,100 reagents, under one of the conditions tested. 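Calls flag viability under 80% in either arm, not effects specific to rucaparib; the reference for percent is not stated.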 A reagent listed more than once was tested more than once; the source does not tell the runs apart. Reagent sequences are not shown. Not given: the 100% reference.

The first 3 records, ahead of the listing:
| gene | technical replicate | viability, normalised (%) | activity call |
| --- | --- | --- | --- |
| MAST2 (microtubule associated serine/threonine kinase 2) | 1 | 94.5 | inactive |
| MAST2 (microtubule associated serine/threonine kinase 2) | 2 | 94.1 | inactive |
| MAST2 (microtubule associated serine/threonine kinase 2) | 3 | 88.6 | inactive |

Results, from the start:
| gene | technical replicate | viability, normalised (%) | activity call |
| --- | --- | --- | --- |
| MAST2 (microtubule associated serine/threonine kinase 2) | 1 | 94.5 | inactive |
| MAST2 (microtubule associated serine/threonine kinase 2) | 2 | 94.1 | inactive |
| MAST2 (microtubule associated serine/threonine kinase 2) | 3 | 88.6 | inactive |
| MPG (N-methylpurine DNA glycosylase) | 1 | 93.9 | inactive |
| MPG (N-methylpurine DNA glycosylase) | 2 | 89.3 | inactive |
| MPG (N-methylpurine DNA glycosylase) | 3 | 87.4 | inactive |
| HDAC8 (histone deacetylase 8) | 1 | 82.3 | inactive |
| HDAC8 (histone deacetylase 8) | 2 | 80.1 | inactive |
| HDAC8 (histone deacetylase 8) | 3 | 75.8 | active |
| PDE8A (phosphodiesterase 8A) | 1 | 51.8 | active |
| PDE8A (phosphodiesterase 8A) | 2 | 54.7 | active |
| PDE8A (phosphodiesterase 8A) | 3 | 56 | active |
| PDCD10 (programmed cell death 10) | 1 | 91.5 | inactive |
| PDCD10 (programmed cell death 10) | 2 | 82.1 | inactive |
| PDCD10 (programmed cell death 10) | 3 | 95.4 | inactive |
| UHRF1 (ubiquitin like with PHD and ring finger domains 1) | 1 | 43.4 | active |
| UHRF1 (ubiquitin like with PHD and ring finger domains 1) | 1 | 51.2 | active |
| UHRF1 (ubiquitin like with PHD and ring finger domains 1) | 2 | 57.3 | active |
| UHRF1 (ubiquitin like with PHD and ring finger domains 1) | 2 | 47.9 | active |
| UHRF1 (ubiquitin like with PHD and ring finger domains 1) | 3 | 53.2 | active |
| UHRF1 (ubiquitin like with PHD and ring finger domains 1) | 3 | 44.5 | active |
| REV1 (REV1 DNA directed polymerase) | 1 | 101 | inactive |
| REV1 (REV1 DNA directed polymerase) | 1 | 44.1 | active |
| REV1 (REV1 DNA directed polymerase) | 2 | 48.9 | active |
| REV1 (REV1 DNA directed polymerase) | 2 | 85.6 | inactive |
| REV1 (REV1 DNA directed polymerase) | 3 | 70.8 | active |
| REV1 (REV1 DNA directed polymerase) | 3 | 46.9 | active |
